PubChem BioAssay AID686937, Drosophila RNAi Screening Center | 2013
In all, the deposit lists about 23,000 reagents; below is an unselected part of those that have a named target and a result. 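Reduced-secretion tags in replicate 1 do not always agree with the z-scores; no criterion for assigning the tags was given.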 Reagents against one gene are numbered here. Names joined by + are all predicted targets of the reagent. Not all columns of the deposit are shown. The record does not give: the amount of reagent.

- Test: 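Genes in the fly needed for secretion of protein constitutively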 (primary screen)
- Cell system: Drosophila S2 cells expressing secreted horseradish peroxidase
- Knock-down reagent: long dsRNA against Drosophila genes
- Timing: about 5.5 days (5 days dsRNA, then 12 h reporter induction)
- Treatment: reporter expression induced after 5 days of dsRNA, read 12 h later; inducer not stated
- Measurement: 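After 5 days of dsRNA and 12 h of reporter induction, medium peroxidase read by chemiluminescence and scored as per-plate z-score; higher values mean more reporter released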
- Scale: z-score: higher = more reporter secreted into medium

z-score, replicate 1, by gene and reagent
CG13912: #1 0.29
CG43068: #1 0.13
CG14857: #1 -0.12
CG8028: #1 -0.05
Or7a (Odorant receptor 7a): #1 0.25
Bili (Band4.1 inhibitor LRP interactor): #1 0.09
CG3277: #1 0.12
NimC3 (Nimrod C3): #1 -0.18; #2 0.82
CG14195: #1 0.16
Cpr50Cb (Cuticular protein 50Cb): #1 0.33
CG10650: #1 0.33
Pgam5-2 (Phosphoglycerate mutase 5-2): #1 0.05
CG7985: #1 0.3
Ppm1: #1 0.59
CG30098: #1 -0.02
Kaz-m1 (Kazal-type protease inhibitor m1): #1 0.35
Obp56f (Odorant-binding protein 56f): #1 -0.2
nej (nejire): #1 -3.52; #2 -3.61
CG11882: #1 0.07
CG15468: #1 0.09
CG4186: #1 0.25
CG15743: #1 0.46
Mat1 (Menage a trois 1): #1 -0.69
CG32228: #1 -0.88
Cpr72Ea (Cuticular protein 72Ea): #1 0.27
CG43333: #1 0.5
CG14330: #1 0.06
Prosalpha6T (Proteasome alpha6 subunit, Testis-specific): #1 -0.02
CG32563: #1 0.22
Nhe2 (Na[+]/H[+] hydrogen exchanger 2): #1 0.27; #2 0.53
Or13a (Odorant receptor 13a): #1 0.15
Cen (Centrocortin): #1 0.5
pain (painless): #1 0.24
CG12912: #1 -3.04
dmGlut (Dietary and metabolic glutamate transporter): #1 0.1
Or98P (Odorant receptor 98a pseudogene): #1 0.08
CG32986: #1 0.27
ZnT41F (Zinc transporter 41F): #1 0.29
CG14456: #1 0.35
CG42383: #1 -0.41
Idh3g: #1 0.21
Cpsf5 (Cleavage and polyadenylation specific factor 5): #1 0.44
Sdr (Secreted decoy of InR): #1 0.52
pico: #1 -0.22
l(3)L1231 (lethal (3) L1231): #1 0.16
CROT (Carnitine O-octanoyltransferase): #1 -0.39; #2 -0.15
Pp1-87B (Protein phosphatase 1 at 87B): #1 -0.37
polyph (polyphemus): #1 -0.05

Records listed so far whose gene name begins with P or p:
z-score, replicate 1, by gene and reagent
Pgam5-2 (Phosphoglycerate mutase 5-2): #1 0.05
Ppm1: #1 0.59
Prosalpha6T (Proteasome alpha6 subunit, Testis-specific): #1 -0.02
pain (painless): #1 0.24
pico: #1 -0.22
Pp1-87B (Protein phosphatase 1 at 87B): #1 -0.37
polyph (polyphemus): #1 -0.05

The listing continues:
z-score, replicate 1, by gene and reagent
CG9095: #1 0.25
seq (sequoia): #1 -0.04
CG17359: #1 0.39
CG43110: #1 0.26
CG42713: #1 -0.08
piwi (P-element induced wimpy testis): #1 0.33
Met75Ca + Met75Cb: #1 0.65; #2 0.43
CG43737: #1 0.32; #2 0.46
Esp (Epidermal stripes and patches): #1 0.2
CG13056: #1 0.15
Yif1 (Yip1-interacting factor 1): #1 -1.03
CG15673: #1 0.01
GluProRS (Glutamyl-prolyl-tRNA synthetase): #1 0.13
OXA1L (OXA1L mitochondrial inner membrane protein): #1 0.11
CG15784: #1 0.29
mRpS26 (mitochondrial ribosomal protein S26): #1 0.32
Mccc2 (Methylcrotonoyl-CoA carboxylase 2): #1 0.16
RYBP (Ring and YY1 Binding Protein): #1 0.26
CG31928: #1 0.19
fz3 (frizzled 3): #1 0.28
CG14104: #1 0.1
CG34229: #1 0.42
Cad89D (Cadherin 89D): #1 -0.23
CG42685: #1 0.72
wcd (wicked): #1 0.09
CG5618: #1 0.22
GluRIB (Glutamate receptor IB): #1 0.48; #2 0.59
